Measurements: article PMC11867009 (2025)

Assay: general procedure: Fmoc solid-phase peptide synthesis; rink amide resin LS (0.5 mmol/g, 100–200 mesh); DIC / oxyma pure
Settings: whole synthesis, analytical reverse-phase HPLC, XBridge C18, UV detection, hydrocarbon staple, sequence written open

Fmoc-Ahx-PESKAIKA(pentenyl)LLKA(pentenyl)VSKERSKRSP-NH2
final HPLC purity: ≥ 98%
